For 1 molecule, binding results are on record in article PMC4302594.

The assay concerns the target GST-fused Chlamydia pneumoniae TW183 chlamydial outer protein N (GST-CpCopN) (Chlamydia pneumoniae TW183). Briefly: pull-down; GST-fusion proteins on glutathione-agarose beads with HEp-2 cell lysate; eluted fractions blotted with anti-human aldolase A antibody; only the target purified.

No constants are given. Whether binding was seen depends on the method and setting. Binding seen in cells or lysates may run through a third protein. Binding calls can cover weak binding; strength is not graded here.

B1: fructose bisphosphate aldolase A (enzyme, UniProt P04075 1-364)
chain: MPYQYPALTPEQKKELSDIAHRIVAPGKGILAADESTGSIAKRLQSIGTENTEENRRFYRQLLLTADDRVNPCIGGVILFHETLYQKADDGRPFPQVIKSKGGVVGIKVDKGVVPLAGTNGETTTQGLDGLSERCAQYKKDGADFAKWRCVLKIGEHTPSALAIMENANVLARYASICQQNGIVPIVEPEILPDGDHDLKRCQYVTEKVLAAVYKALSDHHIYLEGTLLKPNMVTPGHACTQKFSHEEIAMATVTALRRTVPPAVTGITFLSGGQSEEEASINLNAINKCPLLKPWALTFSYGRALQASALKAWGGKKENLKAAQEEYVKRALANSLACQGKYTPSGQAGAAASESLFVSNHAY
Turning to B1, the binding result is reported as “binds”.
